# Record: PubChem BioAssay AID743121 (NCATS, 2013)
# Assay: 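Knock-downs that sensitise breast cancer cells to camptothecin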 (primary screen)
# Cells: MDA-MB-231 cells, a human breast cancer line
# Knock-down reagent: single siRNA against human genes, 20 nM siRNA (0.8 pmol per well)
# Timing: 120 h (drug added 48 h after transfection, read 72 h later)
# Challenge: camptothecin 20 nM (about EC30) for 72 h; vehicle 0.1% DMSO in parallel plates
# Measured: 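Cell viability by ATP luminescence (CellTiter-Glo) as % of non-targeting siRNA wells, and the log2 ratio of viability without drug over viability with camptothecin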
# Reading the numbers: log2 vehicle/camptothecin viability: higher = stronger sensitisation to camptothecin; viability with camptothecin and viability without drug: higher = more viable cells
# Rule for the call: 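Active genes have an RSA gene-level p-value below 0.001, computed from the ratios of their separate siRNAs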
# Shown is an unselected part of about 26,000 deposited reagents. 167 of all reagents (0.63%) count as active. 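Calls are per gene from RSA p-values that are not deposited; an individual active-marked siRNA can sensitise only weakly.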
gene,PubChem SID,log2 vehicle/camptothecin viability,viability with camptothecin (% of control),viability without drug (% of control),Outcome
ARSF,SID164354232,-0.165,81,72.2,inactive
ARSF,SID164354234,-0.079,79.8,75.6,inactive
ARSF,SID164354235,-0.188,63.1,55.4,inactive
ARSF,SID164354236,0.28,47.2,57.3,inactive
HEMK2,SID164465151,-0.376,112,86.2,inactive
HEMK2,SID174315952,-0.207,48.6,42.1,inactive
HEMK2,SID174315971,-0.0273,45.2,44.3,inactive
HEMK2,SID174316036,-0.405,91.8,69.4,inactive
ISLR2,SID164495298,-0.375,109,83.8,inactive
ISLR2,SID164495299,-0.289,92.8,75.9,inactive
ISLR2,SID164495300,-0.0523,67.3,64.9,inactive
ISLR2,SID164495301,-0.509,95.6,67.2,inactive
LPAR6,SID164409113,-0.357,77.7,60.7,inactive
LPAR6,SID164409114,0.544,34.6,50.4,inactive
LPAR6,SID164409115,0.25,56.7,67.4,inactive
LPAR6,SID164409120,-0.102,63.5,59.1,inactive
TRIM41,SID164550642,-0.328,73.1,58.2,inactive
TRIM41,SID164550648,-0.379,94.6,72.7,inactive
TRIM41,SID164550649,-0.0491,72.8,70.3,inactive
TRIM41,SID164550650,-0.412,93.3,70.1,inactive
SYNGAP1,SID164400130,-0.0521,64,61.8,inactive
SYNGAP1,SID164400131,0.0187,79.7,80.8,inactive
SYNGAP1,SID164400132,-0.172,15.2,13.5,inactive
SYNGAP1,SID164400134,-0.359,88,68.6,inactive
CX3CR1,SID164360571,0.196,113,129,inactive
CX3CR1,SID164360572,-0.0498,93.7,90.5,inactive
CX3CR1,SID164360573,-0.206,64,55.5,inactive
CX3CR1,SID164360574,-0.267,96.5,80.2,inactive

4 entries from above, set out differently:
gene | PubChem SID | log2 vehicle/camptothecin viability | viability with camptothecin (% of control) | viability without drug (% of control) | Outcome
ISLR2 | SID164495301 | -0.509 | 95.6 | 67.2 | inactive
LPAR6 | SID164409113 | -0.357 | 77.7 | 60.7 | inactive
LPAR6 | SID164409114 | 0.544 | 34.6 | 50.4 | inactive
LPAR6 | SID164409115 | 0.25 | 56.7 | 67.4 | inactive
